The list does not hold the whole screen: it is rich in T/C values a quarter to a half above the control, in often repeated tests (any T/C) and in doses without a T/C. Other doses and runs of a compound stand elsewhere. T/C gives the treated animals as a percentage of the vehicle group. Some doses have a count of surviving animals in place of a T/C: the source files T/C as zero there, which appears to mark a toxic dose or a test without result, not a measured value. Some survivor counts are full or nearly so, which does not show that the dose was tolerated: survival well below the control is almost never listed, so the zero probably covers shortened survival too. Counts of survivors are from the toxicity check (mostly the fifth day) where no day follows; animals may have died later. Schedules are NCI's codes, taken here to give the interval after Q, in days (D) or hours (H), and the number of doses after X. Some entries hold several experiments; their values stand side by side, smallest first. For survival time, the PubChem record calls one and a half times the control and up active, and a quarter to a half above the control has no call in these data; cut-offs in other NCI protocols can differ. Some T/C values carry the count of animals alive at the toxicity check (mostly the fifth day); without a count, all were alive then.

This is an account of results in PubChem BioAssay AID256 (DTP/NCI, 2004).

The test system of this assay is CD2F1 mice, L1210 leukemia ip, survival T/C. As to the kind of experiment: NCI In Vivo Anticancer Drug Screen. Data for tumor model L1210 Leukemia (intraperitoneal) in CD2F1 (CDF1) mice. The conditions noted are these: higher T/C = longer survival. A digest of the protocol:
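Read-out first: treated-group measurement over vehicle-control measurement, expressed as a ratio. Animals bore a transplanted tumor line and were dosed with compound or vehicle.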

[1] abbreviates: T/C endpoint: mean survival time, dose: 100.0 mg/kg/injection, schedule: Q01DX009 (ip), vehicle: saline with Tween-80.
The mark [2] stands for this setting: T/C endpoint: mean survival time, dose: 200.0 mg/kg/injection, schedule: Q04DX003 (ip), vehicle: saline.
Where [3] appears, read: T/C endpoint: mean survival time, dose: 400.0 mg/kg/injection, schedule: Q04DX003 (ip), vehicle: saline.
[4] abbreviates: T/C endpoint: mean survival time, dose: 200.0 mg/kg/injection, schedule: Q04DX003 (ip), vehicle: saline with Tween-80.
The mark [5] stands for this setting: T/C endpoint: mean survival time, dose: 400.0 mg/kg/injection, schedule: Q04DX003 (ip), vehicle: saline with Tween-80.

As to `CSC1SCC2C(=O)N(C)C(C(C)C)C(=O)OCC(NC(=O)c3cnc4ccccc4n3)C(=O)NC(C)C(=O)N(C)C1C(=O)N(C)C(C(C)C)C(=O)OCC(NC(=O)c1cnc3ccccc3n1)C(=O)NC(C)C(=O)N2C` (configuration not stated), the T/C runs as follows: (T/C endpoint: mean survival time, dose: 64.0 micrograms/kg/injection, schedule: Q01DX009 (ip), vehicle: saline) 129 % of control [5 of 6 alive]; (T/C endpoint: mean survival time, dose: 96.0 micrograms/kg/injection, schedule: Q01DX009 (ip), vehicle: saline) 132 % of control; (T/C endpoint: mean survival time, dose: 128.0 micrograms/kg/injection, schedule: Q01DX009 (ip), vehicle: saline) 129 % of control; (T/C endpoint: median survival time, dose: 67.0 micrograms/kg/injection, schedule: Q01DX005 (ip), vehicle: saline) 137 % of control; (T/C endpoint: median survival time, dose: 100.0 micrograms/kg/injection, schedule: Q01DX005 (ip), vehicle: saline, evaluated on day 30) 143 % of control; (T/C endpoint: median survival time, dose: 100.0 micrograms/kg/injection, schedule: Q01DX005 (ip), vehicle: saline, evaluated on day 60) 125 % of control.

Consider `CCCC[S+](CCCC)CC(=O)c1ccc(-c2ccccc2)cc1`, for which, for the setting “T/C endpoint: mean survival time, dose: 6.25 mg/kg/injection, schedule: Q01DX009 (ip), vehicle: saline”, the survivor count is 6 of 6.

As to `ClCCN(Cc1ccccc1)Cc1ccccc1`, the survivor count is listed as 0 of 6 (T/C endpoint: mean survival time, dose: 50.0 mg/kg/injection, schedule: Q01DX009 (ip), vehicle: saline with Tween-80); 1 of 6 under setting [1]; 0 of 6 (T/C endpoint: mean survival time, dose: 200.0 mg/kg/injection, schedule: Q01DX009 (ip), vehicle: saline with Tween-80).

In the case of `CCN(CC)C(=O)c1ccc[n+](Cc2ccc(Cl)cc2)c1`, the survivor count is, setting by setting: under setting [2], 0 of 6; under setting [3], 0 of 6.

Turning to `CNC(=O)NCc1ccc(C(=O)NC(C)C)cc1`, the survivor count (T/C endpoint: mean survival time, dose: 800.0 mg/kg/injection, schedule: Q01DX009 (ip), vehicle: other) is 0 of 6.

For `CCCCCCOC(=O)C[n+]1ccc(C(N)=O)cc1`, the survivor count under setting [3] was 5 of 6.

On to `CCCCCNCCOC(=O)c1ccc(N)cc1`, for which the survivor count (T/C endpoint: mean survival time, dose: 80.0 mg/kg/injection, schedule: Q01DX001 (ip), vehicle: saline) is listed as 1 of 6.

On to `CC1(C)CC(NC(=O)NCCCl)CC(C)(C)N1`, for which the survivor count reads like this: (T/C endpoint: mean survival time, dose: 100.0 mg/kg/injection, schedule: Q04DX003 (ip), vehicle: saline) 5 of 6; under setting [2], 1 of 6; under setting [3], 0 of 6.

Turning to `COc1cc(C2=NCCc3cc4c(cc32)OCO4)cc(OC)c1OC`, the T/C (T/C endpoint: median survival time, dose: 100.0 mg/kg/injection, schedule: Q01DX009 (ip), vehicle: saline) was 127 % of control. Moreover, the survivor count (T/C endpoint: median survival time, dose: 200.0 mg/kg/injection, schedule: Q01DX009 (ip), vehicle: saline) was 0 of 6 and 4 of 6.

Consider `Cc1ccc(S(=O)(=O)N/N=C/c2ccncc2)cc1`, for which the survivor count (T/C endpoint: mean survival time, dose: 400.0 mg/kg/injection, schedule: Q01DX009 (ip), vehicle: Klucel (hydroxypropylcellulose) (HPC)) is on record as 5 of 6.

For the molecule `S=C(S)NN1CCCC1`, the survivor count under setting [1] is listed as 3 of 6, the survivor count under setting [4] is 6 of 6 and the survivor count under setting [5] is 2 of 6.

Turning to `Cc1ccc2c(c1)C(C(F)(F)F)(C(F)(F)F)OC(C(F)(F)F)(C(F)(F)F)N2`, the survivor count (T/C endpoint: mean survival time, dose: 400.0 mg/kg/injection, schedule: Q01DX009 (ip), vehicle: saline with Tween-80) was 0 of 6.

In the case of `NC(=S)c1cn(C2OC(CO)C(O)C2O)c2ncnc(N)c12` (configuration not stated), the T/C reads like this: (T/C endpoint: median survival time, dose: 0.62 mg/kg/injection, schedule: Q01DX009 (ip), vehicle: suspension in saline) 125 % of control [5 of 6 alive]; (T/C endpoint: median survival time, dose: 1.25 mg/kg/injection, schedule: Q01DX009 (ip), vehicle: suspension in saline) 141 % of control.

As to `NC(=S)N/N=C/c1ncccc1O`, the T/C (T/C endpoint: mean survival time, dose: 6.25 mg/kg/injection, schedule: Q03HX024 (ip), vehicle: saline) was 138 % of control; the T/C (T/C endpoint: mean survival time, dose: 12.5 mg/kg/injection, schedule: Q03HX024 (ip), vehicle: saline) is 137 and 145 % of control; the T/C (T/C endpoint: mean survival time, dose: 25.0 mg/kg/injection, schedule: Q03HX024 (ip), vehicle: saline) is 130 % of control; the T/C (T/C endpoint: median survival time, dose: 11.25 mg/kg/injection, schedule: Q03HX024 (ip), vehicle: saline) is 132 % of control; the T/C (T/C endpoint: median survival time, dose: 12.5 mg/kg/injection, schedule: Q01DX005 (ip), vehicle: saline) was 139 % of control; the T/C (T/C endpoint: median survival time, dose: 22.5 mg/kg/injection, schedule: Q03HX024 (ip), vehicle: saline) is 135 % of control. Moreover, the T/C (T/C endpoint: median survival time, dose: 25.0 mg/kg/injection, schedule: Q01DX005 (ip), vehicle: saline) was 134 % of control; the T/C (T/C endpoint: median survival time, dose: 25.0 mg/kg/injection, schedule: Q01DX005 (ip), vehicle: suspension in saline) was 144 % of control; the T/C (T/C endpoint: median survival time, dose: 45.0 mg/kg/injection, schedule: Q03HX024 (ip), vehicle: saline) was 135 % of control; the T/C (T/C endpoint: median survival time, dose: 50.0 mg/kg/injection, schedule: Q01DX005 (ip), vehicle: suspension in saline) was 141 % of control; the T/C (T/C endpoint: median survival time, dose: 90.0 mg/kg/injection, schedule: Q03HX024 (ip), vehicle: saline) was 142 % of control; the T/C (T/C endpoint: median survival time, dose: 100.0 mg/kg/injection, schedule: Q01DX005 (ip), vehicle: saline) is 147 % of control. The T/C reads like this: (T/C endpoint: median survival time, dose: 161.6 mg/kg/injection, schedule: Q04DX003 (ip), vehicle: suspension in saline) 132 % of control; (T/C endpoint: median survival time, dose: 180.0 mg/kg/injection, schedule: Q04DX003 (ip), vehicle: suspension in saline) 130 % of control; (T/C endpoint: median survival time, dose: 360.0 mg/kg/injection, schedule: Q04DX003 (ip), vehicle: suspension in saline) 142 % of control. The survivor count is, setting by setting: (T/C endpoint: median survival time, dose: 108.0 mg/kg/injection, schedule: Q03HX008 (ip), vehicle: suspension in saline) 5 of 6; (T/C endpoint: median survival time, dose: 161.6 mg/kg/injection, schedule: Q03HX008 (ip), vehicle: suspension in saline) 3 of 6; (T/C endpoint: median survival time, dose: 200.0 mg/kg/injection, schedule: Q01DX005 (ip), vehicle: saline) 4 of 6; (T/C endpoint: median survival time, dose: 400.0 mg/kg/injection, schedule: Q01DX005 (ip), vehicle: saline) 2 of 6; (T/C endpoint: median survival time, dose: 400.0 mg/kg/injection, schedule: Q01DX005 (ip), vehicle: suspension in saline) 5 of 6.

As for `CCC[N+](CCC)(CCC)CCC.N#CC(C#N)=C([SH2+])[SH2+].N#CC(C#N)=C([SH2+])[SH2+].N#CC(C#N)=C([SH2+])[SH2+].[Fe+3]`, for the setting “T/C endpoint: mean survival time, dose: 100.0 mg/kg/injection, schedule: Q04DX003 (ip), vehicle: acetone”, the survivor count is reported as 3 of 6.

As for `CCOC(=O)C[S+](C)C`, for the setting “T/C endpoint: mean survival time, dose: 300.0 mg/kg/injection, schedule: Q01DX001 (ip), vehicle: saline”, the survivor count is 3 of 6.

For `Cc1cc(CSC(=N)N)c(C)cc1CSC(=N)N`, the survivor count is listed as 0 of 6 (T/C endpoint: mean survival time, dose: 100.0 mg/kg/injection, schedule: Q04DX003 (ip), vehicle: saline with Tween-80); 0 of 6 under setting [4]; 0 of 6 under setting [5].

Take `Nc1nc(N)nc(-c2ccccn2)n1`: where the note is “T/C endpoint: mean survival time, dose: 100.0 mg/kg/injection, schedule: Q01DX009 (ip), vehicle: saline”, the T/C was 126 % of control [2 of 3 alive]. Further, under “T/C endpoint: mean survival time, dose: 200.0 mg/kg/injection, schedule: Q01DX009 (ip), vehicle: saline”, the survivor count is 0 of 3.

As for `[Cl][Pt+2][Cl].[NH-]c1ccc(CC(=O)O)cc1[NH-]`, the survivor count is listed as 6 of 6 (T/C endpoint: mean survival time, dose: 50.0 mg/kg/injection, schedule: Q04DX003 (ip), vehicle: water); 6 of 6 (T/C endpoint: mean survival time, dose: 100.0 mg/kg/injection, schedule: Q04DX003 (ip), vehicle: water); 3 of 6 (T/C endpoint: mean survival time, dose: 200.0 mg/kg/injection, schedule: Q04DX003 (ip), vehicle: water).

With `CCCCCCCCCCCCC[n+]1ccc(C#N)cc1`, the survivor count (T/C endpoint: mean survival time, dose: 30.0 mg/kg/injection, schedule: Q01DX009 (ip), vehicle: saline) is 2 of 6.

As for `Cc1ccccc1[As](c1ccccc1C)c1ccccc1C`, the survivor count (T/C endpoint: mean survival time, dose: 50.0 mg/kg/injection, schedule: Q01DX009 (ip), vehicle: saline) is on record as 6 of 6.

As for `[I][Pt][I].c1ccc([PH+](c2ccccc2)c2ccccc2)cc1.c1ccc([PH+](c2ccccc2)c2ccccc2)cc1`, the survivor count (T/C endpoint: mean survival time, dose: 200.0 mg/kg/injection, schedule: Q04DX002 (ip), vehicle: saline with Tween-80) was 3 of 3.

On to `Cc1nc2n3c(nc(C)c13)=CCC2`, for which the survivor count is 6 of 6 under setting [4] and 1 of 6 under setting [5].
